Here are results for one molecule from patent US20180214568A1.

Amino acid sequences for entries named in this document (tags omitted). Residues count along the entry.
UniProt P13595, residues 20-711: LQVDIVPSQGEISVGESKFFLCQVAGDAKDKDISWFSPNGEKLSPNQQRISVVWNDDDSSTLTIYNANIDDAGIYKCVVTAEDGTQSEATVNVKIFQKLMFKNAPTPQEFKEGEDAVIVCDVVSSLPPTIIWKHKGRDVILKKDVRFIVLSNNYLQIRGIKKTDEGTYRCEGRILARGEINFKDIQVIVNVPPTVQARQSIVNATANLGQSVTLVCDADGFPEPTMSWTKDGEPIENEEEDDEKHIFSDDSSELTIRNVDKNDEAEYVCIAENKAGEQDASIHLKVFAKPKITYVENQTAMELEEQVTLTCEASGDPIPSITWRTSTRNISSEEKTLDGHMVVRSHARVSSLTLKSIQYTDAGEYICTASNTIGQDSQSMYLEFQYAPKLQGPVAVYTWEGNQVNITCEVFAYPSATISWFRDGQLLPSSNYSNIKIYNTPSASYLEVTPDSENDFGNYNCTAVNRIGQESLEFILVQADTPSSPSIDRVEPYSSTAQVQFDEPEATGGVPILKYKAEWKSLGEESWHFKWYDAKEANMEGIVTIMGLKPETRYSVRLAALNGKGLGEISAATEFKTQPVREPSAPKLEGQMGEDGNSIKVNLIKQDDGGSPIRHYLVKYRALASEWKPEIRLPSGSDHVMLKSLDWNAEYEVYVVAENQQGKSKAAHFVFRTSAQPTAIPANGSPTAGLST

These are yes or no findings as the source states them, for the method shown. Some results given as binding are weak or reduced against the parent protein; the word gives no strength.

For test [1], the target named is mouse CD56 (mouse) (UniProt P13595). As to the kind of experiment: ELISA. A general note: An ELISA detects its analyte on a solid surface through an enzyme-linked reagent.
For test [2] the target is unchanged. As to the kind of experiment: ELISA on coated mouse CD56 ectodomain, IgG titrated, OD405.

B1: m906 IgG1 (antibody, V domains shown)
VH: EVQLVQSGAEVKKPGSSVKVSCKASGGTFTGYYMHWVRQAPGQGLEWMGWINPNSGGTNYAQKFQGRVTMTRDTSISTAYMELSRLRSDDTAVYYCARDLSSGYSGYFDYWGQGTLVTVSS
VL: DVVMTQSPLSLPVTPGEPASISCRSSQSLLHSNGYNFLDWYLQKPGQSPQLLIYLGSNRASGVPDRFSGSGSGTDFTLKISRVEADDVGVYYCMQSLQTPWTFGHGTKVEIKR
For B1, the binding result in the test with mouse CD56 (mouse) [1] and with mouse CD56 (mouse) [2] was “binds” in each case.
